# In PubChem BioAssay AID1347076 (National Center for Advancing Translational Sciences (NCATS), 2019):
# In all, about 400,000 compounds went through this assay and about 13,000 (3.2%) were called active. Inconclusive means that the source gave no clear call. Such entries were picked first, then a sample of the others. The call rests on the fitted dose curve; in most records, active means well fitted cell-killing curve with a large enough effect; inconclusive means small, poorly fitted or top-dose-only effect, or effect the other way; inactive means flat fitted curve, though single readings scatter. Potencies beside an inconclusive call are fits to weak or partial responses and may not hold up.
# Assay: qHTS assay for MDR1-selective chemotherapeutics: Primary screen using the drug-selected MDR subline cells KB-V1; further: nearly all actives have a fitted effect of over 60% in size
# Settings: KB-V1 MDR cells viability, CellTiter-Glo, 72 h; series mostly up to 46.1 µM
# Summary of the method: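 Drug-selected KB-V1 cells, grown in DMEM lacking phenol red with 10% FBS, receive compound titrations; after three days at 37 degrees C, surviving cell ATP is quantified by CellTiter-Glo luminescence and responses normalized and curve-fitted.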
# Potency means the concentration at half of the fitted maximal effect.
row,Structure (SMILES),Potency
1,CC(C)C[C@@H](CN)NC(=O)c1nc[nH]c1C(=O)N[C@@H](Cc1c[nH]c2ccccc12)C(=O)CNC[C@H](C)NC(=O)c1nc[nH]c1C(=O)N[C@@H](C)C(=O)O,"inconclusive: 29.1 µM [rising, single point]"
2,C=Cc1ccc(CSc2nnc(C)n3c2cc2occc23)cc1,inactive
3,CCc1cc2cc3c(cc2nc1SCC(=O)OC(C)C)OCO3,"inconclusive: 13 µM [cytotoxic, partial curve, poor fit]"
4,Cc1ccc(-n2c(=O)c3c(cnn3C)n(CC(=O)Nc3c(C)cccc3C)c2=O)cc1,inactive
5,CC1(C)Cc2c(cnn2-c2cccc(F)c2)C(NC(=O)C2CCOCC2)C1 (stereo unspecified),"inconclusive: 18.4 µM [cytotoxic, single point]"
6,Cc1cc(-c2nn3c(-c4ccccc4)nnc3s2)c2ccccc2n1,active: 1.03 µM
7,CC(=O)Nc1ccc(S(=O)(=O)Nc2nc(-c3ccc(C(C)(C)C)cc3)cs2)cc1,"inconclusive: 14.6 µM [rising, partial curve, poor fit]"
8,COc1ccc(-n2nc3c(c2NC(=O)c2ccccc2)CS(=O)(=O)C3)cc1,inactive
9,CC(C)c1ccccc1NC(=O)CN(c1ccccc1)S(=O)(=O)N(C)C,inactive
10,O=C(COc1ccc(Cl)cc1Cl)NN1C(=O)C2C3C=CC(C3)C2C1=O (stereo unspecified),inactive
11,CN(CC(=O)Nc1ccc(F)cc1)C(=O)COC(=O)C1=COCCO1,inactive
12,Cc1[nH]oc(=O)c1N=Nc1ccc2[nH]c(=O)[nH]c2c1,"inconclusive: 29.1 µM [cytotoxic, single point]"
13,COc1ccc2[nH]c3c(c2c1)CCN1C(=O)C(CC(=O)NCc2ccco2)C[C@H](C(=O)N2CCCCC2)[C@@]31C (stereo partly specified),"inconclusive: 0.731 µM [rising, full curve, poor fit]"
14,Cc1cc(/C=C2\Sc3ccccc3N2C)cc(C)[n+]1CC1CCCO1 (stereo unspecified),inactive
15,CC1CCc2c(nc3nc[nH]n3c2=O)C1 (stereo unspecified),inactive
16,Cc1[nH]n(-c2ccccc2)c(=O)c1C=NCc1ccncc1,inactive
17,CC(=O)Nc1ccc(NC(=O)C(C)Oc2ccc(C)nc2[N+](=O)[O-])cc1 (stereo unspecified),inactive
18,CCCC(=NCCc1c(C)[nH]c2ccccc12)C1=C(O)CC(c2ccccc2)CC1=O (stereo unspecified),active: 5.17 µM
19,CCCC(=O)Nc1cccc(NC(=O)c2cccc([N+](=O)[O-])c2C)c1,"inconclusive: 23.1 µM [cytotoxic, single point]"
20,CCCOc1ccc(/C=N/NC(=O)c2ccc3c(c2)OCO3)c(OCCC)c1,"inconclusive: 23.1 µM [rising, partial curve, poor fit]"
21,CC(C)(C)NC(=O)COC(=O)c1c2c(nc3ccccc13)CCC2,"inconclusive: 16.4 µM [cytotoxic, single point]"
22,CCCC(=O)Nc1ccc(C(=O)NNC(=S)NC(=O)c2cccs2)cc1,"inconclusive: 9.2 µM [cytotoxic, partial curve, poor fit]"
23,Cc1ccc2c(c1)C(=O)C(=O)N2Cc1ccc(OC(C)C)cc1,"inconclusive: 13 µM [cytotoxic, partial curve, poor fit]"

row,Structure (SMILES),Potency
1,CCCn1c(SCC(=O)Nc2ccccc2Oc2ccccc2)n[nH]c1=O,inactive
2,COc1ccccc1NC(=O)c1coc(=O)c(Br)c1,inactive
3,CSc1ccc(C(=O)c2[nH]c(=O)[nH]c2C)cc1,active: 5.8 µM
4,O=S1(=O)C[C@@H](N2CCN(CCO)CC2)[C@H](COCc2ccccc2)N1,inactive
5,Cc1ccc(C(=O)N2CCC(N3CCN(Cc4ccc(F)cc4)C(=O)C3=O)CC2)cc1,inactive
6,O=C1C(c2ccc(F)cc2)N(Cc2ccccc2Cl)C(=O)CN1C1CCCCC1 (stereo unspecified),inactive
7,COc1ccccc1C(=O)COC(=O)c1ccc(N(C)C)cc1,"inconclusive: 29.1 µM [cytotoxic, single point]"
8,CC1CCCCN1c1nc(-c2ccncc2)nc2ccccc12 (stereo unspecified),"inconclusive: 18.4 µM [cytotoxic, single point]"
9,CCC(C)(C(=O)NC1CCCCC1)N(C(=O)c1ccccn1)c1ccccc1 (stereo unspecified),"inconclusive: 1.64 µM [cytotoxic, partial curve, poor fit]"
10,CCC(C(=O)NC(C)(C)C)n1c(C(c2ccccc2)c2ccccc2)nc2ccccc21 (stereo unspecified),"inconclusive: 5.8 µM [cytotoxic, partial curve]"
11,CCOc1ccccc1NC(=O)COc1cccc(-n2cnnn2)c1,"inconclusive: 8.2 µM [cytotoxic, partial curve]"
12,O=C(c1ccccc1)N1CCOC12CCN(c1ncc(C(F)(F)F)cc1Cl)CC2,"inconclusive: 14.6 µM [cytotoxic, single point]"
13,COc1cc(-c2n[nH]c(=S)n2-c2cc(C(F)(F)F)ccc2Cl)cc(OC)c1OC,active: 13 µM
14,CCOc1ccc(/C=C/C(=O)c2ccccc2)cc1,inactive
15,CCOC(=O)c1ccc2c(c1)C(=O)N(C1CCCCC1)C2=O,"inconclusive: 20.6 µM [cytotoxic, single point]"
16,COc1ccccc1CCNC(=O)C(=O)NCC1OCCN1C(=O)c1ccc(Cl)cc1 (stereo unspecified),inactive
17,CN(CC(=O)NCCc1ccc(S(N)(=O)=O)cc1)S(=O)(=O)c1cccc2nsnc12,"inconclusive: 29.1 µM [rising, single point]"
18,Cc1ccc(Cl)cc1N(Cc1ccc(C(=O)NCc2cccnc2)cc1)S(=O)(=O)c1ccccc1,active: 14.6 µM
19,Cc1oc2ccc(OCC(N)=O)cc2c1C(=O)OC(C)C,"inconclusive: 29.1 µM [cytotoxic, single point]"
20,CCN1CCN(C(=O)C2CCN(c3nnc(-n4c(C)ccc4C)s3)CC2)CC1,"inconclusive: 29.1 µM [rising, single point]"
21,CCC(C)CN1C(=O)CSCC1(C)C(=O)NCc1ccccc1 (stereo unspecified),"inconclusive: 13 µM [cytotoxic, partial curve, poor fit]"
22,CCOC(=O)c1oc2ccc(S(=O)(=O)Nc3ccc4c(c3)n(C)c(=O)n4C)cc2c1C,"inconclusive: 14.6 µM [cytotoxic, partial curve, poor fit]"
23,CN(Cc1ccc(F)cc1)S(=O)(=O)c1nnc(NC(=O)c2ccc(F)cc2)s1,inactive

# Shown as tab-separated lines: two of the compounds above
row	Structure (SMILES)	Potency
9	CCC(C)(C(=O)NC1CCCCC1)N(C(=O)c1ccccn1)c1ccccc1 (stereo unspecified)	inconclusive: 1.64 µM [cytotoxic, partial curve, poor fit]
10	CCC(C(=O)NC(C)(C)C)n1c(C(c2ccccc2)c2ccccc2)nc2ccccc21 (stereo unspecified)	inconclusive: 5.8 µM [cytotoxic, partial curve]
